In patent US11839637B2, “Neuron activator” (Kinjirushi Co., Ltd., priority 2017, dated 2023):
At least one compound was matched to its structure with a doubt left.

Key:
Type in all cases: cell-based, rat
PC12 cells [1] = assay: Hydrogen peroxide toxicity resistance test, MTT (Experimental example 6); details: hydrogen peroxide 100 μM; component alone or combination with 6-MSITC
Method: In Experimental example 6, resistance of PC12 cells against hydrogen peroxide was tested. The test method is the same as that of Experimental example 5, except that hydrogen peroxide was added to the differentiation medium B, instead of amyloid β in Experimental example 5 above. A concentration of hydrogen peroxide in the differentiation medium B was 100 μM.

PC12 cells [2] = assay: Neurite extension test of PC12 cells (Experimental example 3); details: 72 hours
Method: Neurite extension tests of PC12 cells, using various components, were carried out as follows.
(§1) Such passage was repeated at least three times.
(§2) Supernatants were removed.
(§3) Each sample is numbered 1 to 39.
Supernatants were removed. Three microscopic images (bright field, ×10 images, three wells per well) of PC12 cells settled in each well were taken. The shape of the whole PC12 cells in the images was observed. A shown in FIG. 6, when PC12 cells undergo differentiation, a neurite 2 extends from a cell body 1. The total number of PC12 cells, and the number of cells having the neurite 2 with a length L2 were counted. The length L2 is a longer length than a longer diameter L1 of the cell body 1. The number of cells having the neurite with the length L2 was divided by the total number of cells to obtain an extension percentage of the PC12 cells. […] The extension percentage was expressed by an average value of all PC12 cells appearing in all images. […] The same applies to FIGS. 8 to 11. […] Synergistic effect herein means that use of two components in combination can increase the extension percentage as compared to a sum of extension percentages when each component is used alone.

PC12 cells [3] = assay: Dopamine production test of PC12 cells (Experimental example 1); details: 72 hours
Method: Dopamine production tests of PC12 cells, using various components, were carried out as follows.
as §1, §2, §3
A concentration of dopamine in each supernatant was measured. Measurement of dopamine concentration was carried out using ELIZA KIT (manufactured by ImmuSmol, Product No.: BA-E-5300) according to the specifications. A ratio of dopamine concentration in each supernatant was expressed as a percentage (%) of a control of which dopamine concentration in the supernatant is 1.
The same applies to FIGS. 2 to 5. In FIG. 1, τ means statistically significant. * means that synergistic effect was confirmed by combining two components. Synergistic effect herein means that use of two components in combination can produce more amount of dopamine than a sum of amounts of dopamine produced when each component is used alone.

[4] = any one component in the medium, NGF 50 ng/ml

Structure (SMILES): CC/C=C\C/C=C\C/C=C\C/C=C\C/C=C\C/C=C\CCC(=O)O [DHA, docosahexaenoic acid]
- MTT assay in medium with hydrogen peroxide (PC12 cells [1]): a value without problem
- extension of PC12 cells (extension percentage) (PC12 cells [2]; 0.5 μM added to the medium): significant extension enhancement
- extension of PC12 cells (extension percentage) (PC12 cells [2]; 2.5 μM added to the medium): significant extension enhancement
- extension of PC12 cells (extension percentage) (PC12 cells [2]; 40 μM added to the medium): significant extension enhancement
- neurite extension effect, as compared to a case without these components (PC12 cells [2]; [4]): enhanced
- amount of dopamine production produced by the PC12 cells vs control (PC12 cells [3]; 0.5 μM added to the medium): higher than the control
- amount of dopamine production produced by the PC12 cells vs control (PC12 cells [3]; 40 μM added to the medium): higher than the control
- dopamine-producing ability, as compared to a case without these components (PC12 cells [3]; [4]): enhanced
